Measurements: PubChem BioAssay AID504467 (National Center for Advancing Translational Sciences (NCATS), 2011)
Out of some 330,000 compounds screened, about 7,700 (2.3%) were called active. Inconclusive results, whose numbers are uncertain, are shown with a selection of clear calls. Calls follow the shape of the dose curve; as a rule, active = well fitted inhibition curve with a large enough effect; inconclusive = small, poorly fitted or top-dose-only effect, or effect the other way; inactive = flat fitted curve, though single readings scatter. Where the call is inconclusive, the potency comes from a doubtful curve fit.

assay: qHTS screen for small molecules that inhibit ELG1-dependent DNA repair in human embryonic kidney (HEK293T) cells expressing luciferase-tagged ELG1; settings: HEK293T ELG1-luciferase reporter, luminescence, 16 h, DNA damage induced by 5-fluorouridine; activity change, negative = inhibition: at 46.1 µM (top of the series); also: nearly all actives have a fitted effect of over 55% in size
Method in brief: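 Step one: seed 2,000 cells per well. Step two: pin-transfer compound or DMSO alongside 5-fluorouridine. Step three: incubate 16 hr, 37 °C, 5% CO2. Step four: add ONE-Glo, wait 30 min, read luminescence.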
% is scaled to controls: 0 for no effect and ±100 for the full control effect; potency is read from the fitted curve at half-maximal effect.

| Structure (SMILES) | activity change, negative = inhibition | Potency |
| --- | --- | --- |
| COc1ccc(CCNC(C)CCc2ccc(OC)cc2)cc1 (configuration not stated) | inactive: -10.2% | – |
| O=C(c1ccccc1F)c1cn(Cc2ccc(F)cc2)c2ccccc12 | – | inconclusive: 29.1 µM [inhibitor, partial curve, poor fit] |
| C=C(C)CSc1nc2ncc(Cl)cc2[nH]1 | – | inconclusive: 23.1 µM [activator, single point] |
| CCCCOC(=O)COc1cc(C)cc2oc(=O)c3c(c12)CCC3 | inactive: 20.8% | – |
| Cc1cccc(OP(=O)(NCc2ccccc2)Oc2cccc(C)c2)c1 | – | inconclusive: 29.1 µM [inhibitor, single point] |
| CCCC(C)C1(CC)C(=O)NC(=Nc2ccccc2)NC1=O (configuration not stated) | – | inconclusive: 13 µM [inhibitor, partial curve, poor fit] |
| Cn1cc(C(=O)OCC(=O)N2CCCCC2)c2ccccc21 | – | inconclusive: 14.6 µM [activator, partial curve] |
| CCCCS(=O)(=O)N1CCN(C(=N)N[N+](=O)[O-])CC1 | inactive: 0% | – |
| COc1ccc(OCC(=O)N2CCN(Cc3c[nH]c4ccccc34)CC2)cc1 | – | inconclusive: 11.6 µM [inhibitor, partial curve] |
| Cc1ccc(-n2c(-c3nn(C)c(C)c3Cl)n[nH]c2=S)cc1 | – | inconclusive: 23.1 µM [activator, single point] |
| N#CC1=C(N)Oc2n[nH]c(-c3cccs3)c2C1c1ccco1 (configuration not stated) | – | inconclusive: 20.6 µM [activator, single point] |
| COc1ccc(-c2nc3ccccc3c(=O)o2)cc1 | – | inconclusive: 20.6 µM [activator, partial curve] |
| COc1ccc(OC)c(NP(=O)(Oc2ccccc2)Oc2ccccc2)c1 | inactive: -24% | – |
| COC(=O)C1=C(c2c(C)noc2C)C[C@@H]2CC[C@H]1N2C(=O)N1CCc2cc(OC)c(OC)cc2C1 | inactive: -13% | – |
| CC[C@H](C)[C@@H](C(=O)N1CCCC1c1nccs1)N(C)C(=O)[C@H](CC(C)C)N(C)C(=O)[C@H](Cc1ccc(OC)cc1)N(C)C(=O)/C=C(\C)OC (some centres not stated) | – | inconclusive: 20.6 µM [inhibitor, single point] |
| COC(=O)C1=C(c2cccc(C#N)c2)C[C@@H]2CC[C@H]1N2C(=O)NC1Cc2ccccc2C1 | inactive: 18% | – |
| COc1cc(OC)c(OC)cc1C=O | – | inconclusive: 11.6 µM [inhibitor, partial curve, poor fit] |
| S=c1[nH]nc(-c2ccc3ccccc3n2)n1-c1ccc2c(c1)OCCO2 | – | inconclusive: 9.2 µM [activator, partial curve, poor fit] |
| COc1cccc(-n2c(CN3CCOCC3)nc3ccc([N+](=O)[O-])cc3c2=O)c1 | – | inconclusive: 8.2 µM [inhibitor, partial curve, poor fit] |
| COc1ccc(-n2nc(C(=O)NCC(=O)N3CCC4(CC3)OCCO4)c3ccccc3c2=O)c(OC)c1 | – | inconclusive: 13 µM [activator, partial curve] |
| O=C(c1ccccc1)c1ccc(N=Nc2c(O)[nH]c(=O)[nH]c2=O)cc1 | inactive: 18.1% | – |

| Structure (SMILES) | activity change, negative = inhibition | Potency |
| --- | --- | --- |
| CCC(C)NC(=O)c1c(N)n(CC2CCCO2)c2nc3ccccc3nc12 (configuration not stated) | – | active: 20.6 µM |
| CCCCCn1c(=O)c(C(=O)Nc2ccccc2C)c(O)c2ccccc21 | – | inconclusive: 29.1 µM [activator, single point] |
| CO[C@@H]1C=CC23c4cc5c(cc4CO[C@]2(O)CN(C)[C@H]3C1)OCO5 (some centres not stated) | – | inconclusive: 20.6 µM [activator, single point] |
| C=CC[C@@H](CC(=O)N(CCO)Cc1ccccc1)C(=O)NC[C@@H](OC(=O)[C@@H](CC=C)CC(=O)OC(C)(C)C)c1ccccc1 | – | active: 20.6 µM |
| COC(=O)C1=C(c2ccc(-c3ccccc3)c(F)c2)C[C@@H]2CC[C@H]1N2C(=O)N1CCC(O)CC1 | – | inconclusive: 23.1 µM [inhibitor, single point] |
| Cc1cc(Cl)ccc1C(=O)C1CCCN(C2CCSCC2)C1 (configuration not stated) | inactive: -3.76% | – |
| COc1cc2c(cc1O)CC1c3c(cc(O)c(OC)c3-2)CCN1C (configuration not stated) | – | inconclusive: 5.8 µM [inhibitor, partial curve] |
| COC(=O)C1=C(c2ccc(F)cc2F)C[C@@H]2CC[C@H]1N2C(=O)N1CCOCC1 | inactive: 14.3% | – |
| CC(C)Cn1cc(C(=O)N2CCC3(CC2)OCCO3)c2c3ccccc3n(C)c2c1=O | – | inconclusive: 23.1 µM [inhibitor, partial curve] |
| COC(=O)C1=C(c2ccc(F)cc2OCc2ccccc2)C[C@@H]2CC[C@H]1N2C(=O)NCCc1ccc(F)cc1 | – | inconclusive: 32.6 µM [inhibitor, single point] |
| COC(=O)C1=C(c2ccc(F)cc2OCc2ccccc2)C[C@@H]2CC[C@H]1N2C(=O)NCc1ccc(OC)cc1 | – | inconclusive: 11.6 µM [inhibitor, partial curve, poor fit] |
| CCOC(=O)C(NC(=O)CCl)(Nc1ccc(C(O)(C(=O)OCC)C(F)(F)F)cc1)C(F)(F)F (configuration not stated) | inactive: -6.04% | – |
| O=c1[nH]c(=O)n(CCc2ccccc2)c(O)c1C=NCc1ccc2c(c1)OCO2 | – | inconclusive: 18.4 µM [activator, single point] |
| Cc1nc2ccc(Br)cc2c(=O)n1-c1ccc([N+](=O)[O-])c(C(F)(F)F)c1 | inactive: -2.98% | – |
| N[C@@H](Cc1ccccc1)C(=O)N1C[C@H]2C[C@@H](C1)c1cccc(=O)n1C2 | – | inconclusive: 29.1 µM [inhibitor, single point] |
| NNc1n[nH]c(=S)n1N | – | inconclusive: 0.116 µM [activator, full curve, poor fit] |
| COC1=C(C)C(=O)O[C@]12C(=O)C(C)=C1CCCCN3[C@H]([C@@H]4C[C@H](C)C(=O)O4)CC[C@]132 | – | inconclusive: 20.6 µM [activator, single point] |
| Cn1cc(C(=O)NCc2ccccc2)c2ccccc21 | inactive: 10.6% | – |
| O=C(O)C1C2CCC(O2)C1C(=O)Nc1ccc(Cl)cc1 (configuration not stated) | – | inconclusive: 29.1 µM [activator, single point] |
| OC12CCCCC1C(c1ccccc1)NCC2 (configuration not stated) | inactive: -10.5% | – |
| COc1ccc(-c2nc(CSCC(=O)N3CCC4(CC3)OCCO4)c(C)o2)cc1OC | – | inconclusive: 35.5 µM [inhibitor, single point] |

Fetched by compound from above (2):

| Structure (SMILES) | activity change, negative = inhibition | Potency |
| --- | --- | --- |
| COC(=O)C1=C(c2ccc(F)cc2F)C[C@@H]2CC[C@H]1N2C(=O)N1CCOCC1 | inactive: 14.3% | – |
| CCCCCn1c(=O)c(C(=O)Nc2ccccc2C)c(O)c2ccccc21 | – | inconclusive: 29.1 µM [activator, single point] |
